Results are given in words; binding and its absence hold for the method and conditions named. Binding seen in cells or lysates may run through a third protein. A result given as binding can be weak or reduced; the word gives no strength. Sequences can lack the tags named with a protein.

This assay concerns the target T1, Flag-Arc WT (Flag-hArc/Arg3.1) (human) (UniProt Q7LC44).
T1 sequence: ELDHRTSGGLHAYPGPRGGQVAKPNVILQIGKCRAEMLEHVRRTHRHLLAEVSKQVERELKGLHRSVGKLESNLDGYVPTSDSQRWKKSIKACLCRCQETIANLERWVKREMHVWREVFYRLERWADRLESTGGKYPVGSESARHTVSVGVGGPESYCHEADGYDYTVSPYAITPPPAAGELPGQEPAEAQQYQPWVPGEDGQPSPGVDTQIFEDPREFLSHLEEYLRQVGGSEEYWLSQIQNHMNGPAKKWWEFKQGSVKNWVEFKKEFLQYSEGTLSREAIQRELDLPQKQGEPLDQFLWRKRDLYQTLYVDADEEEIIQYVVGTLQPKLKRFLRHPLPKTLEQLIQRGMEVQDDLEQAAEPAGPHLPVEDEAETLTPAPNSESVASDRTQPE
Nature of the assay: co-IP.

Consider GFP-Hsp70, for which the binding entry was “binds”.

The record behind these values is article doi:10.1101/2025.07.20.665809 (bioRxiv, 2025).
